Reference: paper PMC10117145
No constants are given. Whether binding was seen depends on the method and setting. Some binding calls cover weakened binding; strength is not graded here. For some assays here: Where a sequence is shown, tags or fusion partners need not be part of it.

By UniProt entry, the sequences of proteins in these tests, tags left out.
UniProt P9WHY2: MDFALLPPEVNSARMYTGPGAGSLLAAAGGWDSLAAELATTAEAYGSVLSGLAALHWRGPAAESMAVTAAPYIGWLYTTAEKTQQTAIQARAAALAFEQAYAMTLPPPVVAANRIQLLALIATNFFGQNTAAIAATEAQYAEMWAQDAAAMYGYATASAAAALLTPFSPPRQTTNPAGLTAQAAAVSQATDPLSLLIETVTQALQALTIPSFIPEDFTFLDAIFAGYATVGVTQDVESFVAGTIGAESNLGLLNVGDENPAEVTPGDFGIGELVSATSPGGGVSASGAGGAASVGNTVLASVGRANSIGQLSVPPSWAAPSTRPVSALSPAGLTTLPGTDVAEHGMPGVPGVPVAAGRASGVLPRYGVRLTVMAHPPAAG

Columns and labels:
[1] = target: Recombinant PPE51_(6His) refolded in 0.1% DDM (Mycobacterium tuberculosis) (UniProt P9WHY2); assay: SEC; both purified
[2] = target: Recombinant PPE64_(6His) refolded in 0.1% DDM (Mycobacterium tuberculosis) (UniProt Q6MWW0); assay: SEC; both purified

Recombinant PPE51_(6His) refolded in 0.1% DDM (from UniProt P9WHY2 1-380)
binding [1]: binds

B1: Recombinant PPE64_(6His) refolded in 0.1% DDM (protein, UniProt Q6MWW0 1-552)
chain: MAHFSVLPPEINSLRMYLGAGSAPMLQAAAAWDGLAAELGTAASSFSSVTTGLTGQAWQGPASAAMAAAAAPYAGFLTTASAQAQLAAGQAKAVASVFEAAKAAIVPPAAVAANREAFLALIRSNWLGLNAPWIAAVESLYEEYWAADVAAMTGYHAGASQAAAQLPLPAGLQQFLNTLPNLGIGNQGNANLGGGNTGSGNIGNGNKGSSNLGGGNIGNNNIGSGNRGSDNFGAGNVGTGNIGFGNQGPIDVNLLATPGQNNVGLGNIGNNNMGFGNTGDANTGGGNTGNGNIGGGNTGNNNFGFGNTGNNNIGIGLTGNNQMGINLAGLLNSGSGNIGIGNSGTNNIGLFNSGSGNIGVFNTGANTLVPGDLNNLGVGNSGNANIGFGNAGVLNTGFGNASILNTGLGNAGELNTGFGNAGFVNTGFDNSGNVNTGNGNSGNINTGSWNAGNVNTGFGIITDSGLTNSGFGNTGTDVSGFFNTPTGPLAVDVSGFFNTASGGTVINGQTSGIGNIGVPGTLFGSVRSGLNTGLFNMGTAISGLFNLRQLLG
binding [2]: binds
